Experimental data taken from patent publication US10807960B2, “Compounds, compositions, and methods for controlling biofilms” (KATHOLIEKE UNIVERSITEIT LEUVEN, priority 2015, dated 2020).
Some of these results come from one statement about several compounds together.

Columns and labels:
[1] = test system: bone-marrow derived mesenchymal stem cells (MSC); test: osteogenic differentiation, calcium and DNA assay; assay type: cell-based, human
Description: (§1) The effect on osteogenic differentiation potential was assessed as previously described. Only the substances that allowed survival of the cells for more than 3 weeks, which is the time needed for mature osteogenic differentiation, were tested. Briefly, osteoblasts and bone-marrow derived mesenchymal stem cells were cultured in a positive solvent control (osteogenic medium with 0.5% DMSO or ethanol background), a negative control (medium without osteogenic supplements) and treated samples (osteogenic medium, 0.5% DMSO or ethanol background and 12.5 μM of test compound) with four repeats per condition. Mesenchymal stem cells and osteoblast cell cultures were harvested after 3 or 5 weeks, respectively, for the calcium and DNA assay.
(§2) Calcium deposition of osteoblasts and mesenchymal stem cells was measured with the Calcium CPC LiquiColor test (Stanbio Laboratory, Boerne, Tex.) as previously described. Briefly, cell cultures were extracted with 5% trichloroacetic acid (500 μl per sample), O-cresolphtalein complex was added, and the calcium content was determined spectrophotometrically at 550 nm. DNA content was determined as previously described. DNA values were used to normalize the calcium content. Four wells per condition were examined, and two samples from each well were taken for each assay.

osteoblasts (OB) = test: osteogenic differentiation, calcium and DNA assay; assay type: cell-based, human
Description: as §1, §2

Compound	survival of cells [1]	survival of cells (osteoblasts (OB))
CCCCCCCCn1c(-c2ccc(Cl)c(Cl)c2)cnc1NC1CCCC1 [Compound 8h, 5-(3,4-dichlorophenyl)-N-cyclopentyl-1-octyl-1H-imidazol-2-amine]	more than 3 weeks	more than 3 weeks
CCCCCCCCn1c(-c2ccc(Br)cc2)cnc1NC1CCCC1 [Compound 8g, 5-(4-bromophenyl)-N-cyclopentyl-1-octyl-1H-imidazol-2-amine]	more than 3 weeks	more than 3 weeks
CCCCCCCCn1c(-c2ccc(Br)cc2)cnc1NCC(C)C [Compound 8c, 5-(4-bromophenyl)-N-isobutyl-1-octyl-1H-imidazol-2-amine]	more than 3 weeks	more than 3 weeks
CCCCCCCCn1c(-c2ccc(Cl)c(Cl)c2)cnc1NCC(C)C [Compound 8d, 5-(3,4-dichlorophenyl)-N-isobutyl-1-octyl-1H-imidazol-2-amine]	more than 3 weeks	more than 3 weeks
CCCCCCCCn1c(-c2ccc(Cl)cc2)cnc1NCC(C)C [Compound 8b, 5-(4-chlorophenyl)-N-isobutyl-1-octyl-1H-imidazol-2-amine]	more than 3 weeks	more than 3 weeks
